# Test results from PubChem BioAssay (EPA / NIEHS).
# Protein sequences, listed by entry. Tags and fused reporters are not part of them. Lines headed by an entry give the natural chain unless they say otherwise; changes in a name come on top.
# UniProt P10276, whole entry, looked up: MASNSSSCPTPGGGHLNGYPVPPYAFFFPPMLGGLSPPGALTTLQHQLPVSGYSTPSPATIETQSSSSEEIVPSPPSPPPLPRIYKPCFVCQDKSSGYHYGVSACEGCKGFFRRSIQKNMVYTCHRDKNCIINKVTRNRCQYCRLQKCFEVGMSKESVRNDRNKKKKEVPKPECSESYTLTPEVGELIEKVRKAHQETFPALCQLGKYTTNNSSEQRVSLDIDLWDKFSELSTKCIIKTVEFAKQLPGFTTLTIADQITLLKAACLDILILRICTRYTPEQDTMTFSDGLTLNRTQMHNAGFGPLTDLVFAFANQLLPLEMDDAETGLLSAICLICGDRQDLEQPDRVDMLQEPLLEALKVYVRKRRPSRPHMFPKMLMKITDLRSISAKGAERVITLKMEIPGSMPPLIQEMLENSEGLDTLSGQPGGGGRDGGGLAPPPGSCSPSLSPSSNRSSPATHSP
# UniProt P13631, whole entry, looked up: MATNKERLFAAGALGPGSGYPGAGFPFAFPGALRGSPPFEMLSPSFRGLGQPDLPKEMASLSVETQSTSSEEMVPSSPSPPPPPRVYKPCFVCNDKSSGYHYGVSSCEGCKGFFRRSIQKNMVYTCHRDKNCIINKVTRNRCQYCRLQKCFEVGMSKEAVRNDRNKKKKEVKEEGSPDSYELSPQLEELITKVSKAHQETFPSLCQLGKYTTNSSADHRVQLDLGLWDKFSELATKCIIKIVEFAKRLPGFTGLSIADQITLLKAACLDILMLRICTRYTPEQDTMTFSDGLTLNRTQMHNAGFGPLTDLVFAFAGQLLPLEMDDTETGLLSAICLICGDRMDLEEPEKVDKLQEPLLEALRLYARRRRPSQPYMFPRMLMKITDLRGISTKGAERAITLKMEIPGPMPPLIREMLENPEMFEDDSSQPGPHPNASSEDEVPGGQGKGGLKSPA
# UniProt Q92753: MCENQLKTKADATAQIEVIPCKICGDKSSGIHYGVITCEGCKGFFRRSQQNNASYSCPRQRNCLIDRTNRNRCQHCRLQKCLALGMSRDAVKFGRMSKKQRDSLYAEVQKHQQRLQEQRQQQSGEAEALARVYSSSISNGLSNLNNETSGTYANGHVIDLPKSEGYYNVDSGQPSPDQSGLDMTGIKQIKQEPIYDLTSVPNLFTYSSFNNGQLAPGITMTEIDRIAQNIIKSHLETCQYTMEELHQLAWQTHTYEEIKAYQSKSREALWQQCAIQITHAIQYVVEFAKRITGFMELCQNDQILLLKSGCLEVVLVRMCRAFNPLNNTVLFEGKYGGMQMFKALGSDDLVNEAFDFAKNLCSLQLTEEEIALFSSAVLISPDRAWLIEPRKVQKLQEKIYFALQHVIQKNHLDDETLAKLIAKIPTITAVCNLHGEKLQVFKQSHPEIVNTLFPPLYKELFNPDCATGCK
# UniProt P51449: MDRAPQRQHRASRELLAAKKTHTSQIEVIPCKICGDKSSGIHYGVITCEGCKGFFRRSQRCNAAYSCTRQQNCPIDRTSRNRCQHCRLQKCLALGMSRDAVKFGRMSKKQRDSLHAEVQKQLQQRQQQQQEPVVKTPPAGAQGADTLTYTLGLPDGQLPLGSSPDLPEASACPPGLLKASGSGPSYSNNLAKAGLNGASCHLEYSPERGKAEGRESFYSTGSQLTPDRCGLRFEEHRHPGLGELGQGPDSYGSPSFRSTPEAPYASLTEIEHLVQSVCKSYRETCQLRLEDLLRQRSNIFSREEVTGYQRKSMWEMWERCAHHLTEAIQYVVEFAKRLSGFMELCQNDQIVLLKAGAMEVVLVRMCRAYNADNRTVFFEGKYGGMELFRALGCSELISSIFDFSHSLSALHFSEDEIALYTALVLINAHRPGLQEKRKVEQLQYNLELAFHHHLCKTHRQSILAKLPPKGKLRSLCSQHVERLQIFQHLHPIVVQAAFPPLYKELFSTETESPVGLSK
# UniProt P28702: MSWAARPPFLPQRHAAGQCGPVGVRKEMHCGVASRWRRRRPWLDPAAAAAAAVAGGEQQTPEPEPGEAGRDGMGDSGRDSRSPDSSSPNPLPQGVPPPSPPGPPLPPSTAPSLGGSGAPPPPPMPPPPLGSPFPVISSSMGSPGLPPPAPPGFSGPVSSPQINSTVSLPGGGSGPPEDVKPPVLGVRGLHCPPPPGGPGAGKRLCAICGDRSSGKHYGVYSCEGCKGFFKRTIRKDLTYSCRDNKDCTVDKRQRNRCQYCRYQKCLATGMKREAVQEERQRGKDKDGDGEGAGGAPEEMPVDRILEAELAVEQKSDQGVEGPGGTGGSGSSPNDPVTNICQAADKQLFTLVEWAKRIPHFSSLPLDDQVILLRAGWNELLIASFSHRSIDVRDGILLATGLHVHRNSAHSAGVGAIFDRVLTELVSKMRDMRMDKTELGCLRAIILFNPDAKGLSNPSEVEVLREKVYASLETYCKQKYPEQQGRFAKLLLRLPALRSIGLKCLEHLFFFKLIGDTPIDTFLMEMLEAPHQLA
# UniProt P11473: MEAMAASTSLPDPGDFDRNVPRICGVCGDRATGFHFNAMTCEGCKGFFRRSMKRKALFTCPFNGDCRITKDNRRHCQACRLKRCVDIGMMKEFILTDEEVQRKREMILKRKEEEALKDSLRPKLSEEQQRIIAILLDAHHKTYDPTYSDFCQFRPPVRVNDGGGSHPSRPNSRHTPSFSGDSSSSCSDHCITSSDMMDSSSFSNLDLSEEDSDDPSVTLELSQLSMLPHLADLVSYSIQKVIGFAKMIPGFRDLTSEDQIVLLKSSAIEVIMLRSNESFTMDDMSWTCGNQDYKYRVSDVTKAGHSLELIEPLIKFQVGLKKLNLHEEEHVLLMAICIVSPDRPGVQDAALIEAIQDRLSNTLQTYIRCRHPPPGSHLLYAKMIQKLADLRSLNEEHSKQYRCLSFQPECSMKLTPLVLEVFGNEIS
# UniProt P19793: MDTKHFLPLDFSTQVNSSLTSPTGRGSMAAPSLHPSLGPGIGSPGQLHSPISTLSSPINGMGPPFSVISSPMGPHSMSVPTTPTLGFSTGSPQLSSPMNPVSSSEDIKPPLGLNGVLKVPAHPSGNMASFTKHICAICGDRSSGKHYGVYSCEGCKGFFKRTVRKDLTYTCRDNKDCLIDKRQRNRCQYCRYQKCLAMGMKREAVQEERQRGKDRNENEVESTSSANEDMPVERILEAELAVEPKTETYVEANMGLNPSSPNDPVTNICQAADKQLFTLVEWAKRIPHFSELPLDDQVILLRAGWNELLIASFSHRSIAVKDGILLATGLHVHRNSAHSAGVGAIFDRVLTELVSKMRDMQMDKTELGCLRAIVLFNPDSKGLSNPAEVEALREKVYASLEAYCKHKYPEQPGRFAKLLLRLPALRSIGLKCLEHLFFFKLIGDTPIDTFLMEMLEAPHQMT
# UniProt P10827: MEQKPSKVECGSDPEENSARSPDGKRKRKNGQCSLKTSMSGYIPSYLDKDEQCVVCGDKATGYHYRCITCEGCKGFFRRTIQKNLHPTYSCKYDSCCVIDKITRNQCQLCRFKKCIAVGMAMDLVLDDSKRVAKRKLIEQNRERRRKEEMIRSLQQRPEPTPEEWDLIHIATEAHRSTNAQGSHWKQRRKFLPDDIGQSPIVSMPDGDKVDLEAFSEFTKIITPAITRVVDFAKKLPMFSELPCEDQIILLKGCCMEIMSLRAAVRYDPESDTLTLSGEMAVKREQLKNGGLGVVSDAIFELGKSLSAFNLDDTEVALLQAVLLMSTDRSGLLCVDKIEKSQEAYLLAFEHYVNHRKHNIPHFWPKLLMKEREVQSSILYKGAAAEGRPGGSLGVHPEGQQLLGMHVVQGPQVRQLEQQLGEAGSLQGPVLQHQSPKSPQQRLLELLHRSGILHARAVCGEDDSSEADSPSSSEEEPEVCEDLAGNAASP
# The inconclusive results got no clear call from the source; some entries with a clear call stand among them for comparison. Potencies beside an inconclusive call are fits to weak or partial responses and may not hold up. Calls of active or inactive are those of the source. How the source made its calls: active means hit-call score of the fitted dose curve at least 0.9, where 1 is the maximum; inconclusive means response in the unintended direction; inactive means score below 0.9.
# Experiments:
# [1] = molecular target: Retinoic acid receptor alpha (Homo sapiens) (UniProt P10276); experiment: ATG_RARa_TRANS: Attagene TRANS-FACTORIAL HepG2 Assay for human Retinoic Acid Receptor alpha (RARa) (AID 2283005);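 on AC50: potency for increased reporter signal meaning RARa activation over DMSO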
# Method in brief: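 HepG2 transiently transfected with multiplex GAL4-UAS reporter units including a human RARa–GAL4 chimera; 24 h compound exposure. Reporter mRNA quantified by RT-PCR, 6-FAM labeling and capillary electrophoresis; gain of signal versus DMSO.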
# [2] = molecular target: human Retinoic Acid Receptor gamma (RARg), RARG (gene 5916) (UniProt P13631); experiment: ATG_RARg_TRANS: Attagene TRANS-FACTORIAL HepG2 Assay for human Retinoic Acid Receptor gamma (RARg) (AID 2283009);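 on AC50: AC50 is for reporter induction above DMSO meaning RARg activation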
# Method in brief: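 Transient transfection of HepG2 with multi-reporter constructs, then 24 h chemical treatment. Total RNA isolated, reverse-transcribed, PCR-amplified, fluorescently labelled and resolved by capillary electrophoresis; activity scored as mRNA induction versus DMSO.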
# [3] = molecular target: human RAR-related Orphan Receptor beta (RORb), RORB (gene 6096) (UniProt Q92753); experiment: ATG_RORb_TRANS: Attagene TRANS-FACTORIAL HepG2 Assay for human RAR-related Orphan Receptor beta (RORb) (AID 2283010);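 on AC50: potency for increased reporter mRNA meaning activation of RORb-Gal4 chimera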
# Method in brief: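 Readout is reporter-gene mRNA induction, detected as fluorescence after RT-PCR and capillary electrophoresis, fitted for gain of signal against DMSO controls. Transiently transfected HepG2 liver cells carrying GAL4-UAS reporter constructs were treated for 24 hours.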
# [4] = molecular target: human RAR-related Orphan Receptor gamma (RORg), RORC (gene 6097) (UniProt P51449); experiment: ATG_RORg_TRANS: Attagene TRANS-FACTORIAL HepG2 Assay for human RAR-related Orphan Receptor gamma (RORg) (AID 2283011);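 on AC50: potency for induction of reporter transcripts above DMSO so activators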
# Method in brief: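 HepG2 cells transiently transfected with GAL4-UAS reporter units and chimeric RORg-Gal4 construct; after 24 h chemical exposure, reporter mRNA measured by RT-PCR with fluorescent capillary electrophoresis, gain of signal fitted against DMSO.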
# [5] = molecular target: human Retinoid X Receptor beta (RXRb), RXRB (gene 6257) (UniProt P28702); experiment: ATG_RXRb_TRANS: Attagene TRANS-FACTORIAL HepG2 Assay for human Retinoid X Receptor beta (RXRb) (AID 2283013)
# Method in brief: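 Transfect HepG2 with GAL4-UAS multi-reporter constructs (chimeric NR-Gal4, TRANS format); dose compound 24 h; isolate RNA, RT-PCR, FAM primer extension, HpaI digest; quantify by capillary electrophoresis; positive direction vs DMSO.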
# [6] = molecular target: human Vitamin D Receptor (VDR), VDR (gene 7421) (UniProt P11473); experiment: ATG_VDR_TRANS: Attagene TRANS-FACTORIAL HepG2 Assay for human Vitamin D Receptor (VDR) (AID 2283022)
# Method in brief: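 HepG2 cells were transiently transfected with GAL4-UAS reporter units and a chimeric VDR-Gal4 construct, then dosed for 24 hours. Reporter mRNA was quantified by RT-PCR, fluorescent labeling, HpaI digestion and capillary electrophoresis; gain of signal analysed vs DMSO.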
# [7] = molecular target: Retinoic acid receptor RXR-alpha (Homo sapiens) (UniProt P19793); experiment: ATG_RXRa_TRANS: Attagene TRANS-FACTORIAL HepG2 Assay for human Retinoid X Receptor alpha (RXRa) (AID 2283012)
# Method in brief: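 Transient transfection of human HepG2 with multiple GAL4-UAS reporter constructs; 24 h compound exposure; total RNA isolated, reverse-transcribed, PCR-amplified, 6-FAM labelled, HpaI-cut, resolved by capillary electrophoresis. Positive-direction fit versus DMSO.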
# [8] = molecular target: human Thyroid Receptor alpha (THRa1), THRA (gene 7067) (UniProt P10827); experiment: ATG_THRa1_TRANS: Attagene TRANS-FACTORIAL HepG2 Assay for human Thyroid Receptor alpha (THRa1) (AID 2283014)
# Method in brief: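 HepG2 cells transiently transfected with chimeric NR-Gal4 and GAL4-UAS reporter units, dosed 24 h. Reporter mRNA quantified by RT-PCR, fluorescent labeling, HpaI digestion and capillary electrophoresis; gain-of-signal fit versus DMSO.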
structure (smiles),measurement,setting,value
C=CC(=O)OCCC(F)(F)C(F)(F)C(F)(F)C(F)(F)C(F)(F)C(F)(F)C(F)(F)C(F)(F)F,AC50,[1],inconclusive: 50 µM
same,AC50,[2],inconclusive: 28.6 µM
same,outcome,[3],inactive
same,AC50,[4],inconclusive: 50 µM
same,AC50,[6],inconclusive: 50 µM
CO[Si](C)(C)OC,AC50,[1],inconclusive: 184 µM
same,AC50,[2],inconclusive: 100 µM
same,AC50,[3],inconclusive: 5.39 µM
same,AC50,[7],inconclusive: 0.00898 µM
same,AC50,[5],inconclusive: 0.401 µM
Cc1ccc(S(=O)(=O)O)cc1C,outcome,[1],inactive
same,AC50,[2],inconclusive: 100 µM
same,AC50,[3],inconclusive: 100 µM
same,outcome,[7],inactive
same,outcome,[5],inactive
CCCCCCCCC(=O)OCC,outcome,[1],inactive
same,outcome,[2],inactive
same,AC50,[3],inconclusive: 100 µM
same,AC50,[4],inconclusive: 24.2 µM
same,outcome,[8],inactive
same,AC50,[6],inconclusive: 100 µM
O=c1c(O)c(-c2ccc(O)cc2O)oc2cc(O)cc(O)c12,outcome,[1],inactive
same,AC50,[2],inconclusive: 0.473 µM
same,AC50,[3],inconclusive: 95 µM
same,outcome,[4],inactive
same,outcome,[5],inactive
same,outcome,[8],inactive
same,outcome,[6],inactive
O=C1c2ccc(O)c(O)c2C(=O)c2c(O)ccc(O)c21,AC50,[1],inconclusive: 50 µM
same,AC50,[2],active: 50 µM
same,outcome,[3],inactive
same,AC50,[4],inconclusive: 0.0412 µM
same,outcome,[5],inactive
same,AC50,[8],active: 13.8 µM
same,outcome,[6],inactive
CCC(C)C(=O)OC (stereo not drawn),outcome,[1],inactive
same,AC50,[2],inconclusive: 100 µM
same,outcome,[3],inactive
same,outcome,[4],inactive
same,AC50,[8],inconclusive: 100 µM
same,AC50,[6],inconclusive: 100 µM
CCCCOC(=O)CCC(C)=O,AC50,[1],inconclusive: 42.8 µM
same,AC50,[2],inconclusive: 100 µM
same,AC50,[3],inconclusive: 100 µM
same,AC50,[4],inconclusive: 100 µM
same,outcome,[5],inactive
same,outcome,[8],inactive
same,outcome,[6],inactive
OC[C@H]1O[C@@H](O[C@H]2[C@H](O)[C@@H](O)[C@H](O)O[C@@H]2CO)[C@H](O)[C@@H](O)[C@H]1O,AC50,[1],inconclusive: 100 µM
same,AC50,[2],inconclusive: 100 µM
same,outcome,[3],inactive
same,outcome,[5],inactive
Oc1cc2ccccc2cc1O,outcome,[1],inactive
same,outcome,[2],inactive
same,outcome,[3],inactive
same,AC50,[6],inconclusive: 0.0821 µM
CCCCCCCCC1CCC(=O)O1 (stereo not drawn),AC50,[1],inconclusive: 119 µM
same,AC50,[2],inconclusive: 36.7 µM
same,outcome,[3],inactive
same,outcome,[5],inactive
CC(=O)OC(C)C,outcome,[1],inactive
same,outcome,[2],inactive
same,AC50,[3],inconclusive: 100 µM
same,AC50,[5],inconclusive: 100 µM
same,AC50,[8],inconclusive: 100 µM
CCn1nc(Cc2ccccc2)cc1C1CCN(C[C@H]2C[C@H](N(C)[C@@H](C(=O)O)C(C)C)C[C@@H]2c2cccc(F)c2)CC1,AC50,[1],inconclusive: 73.8 µM
same,AC50,[2],inconclusive: 100 µM
same,AC50,[3],inconclusive: 12 µM
same,AC50,[7],inconclusive: 24.4 µM
same,AC50,[5],inconclusive: 100 µM
same,AC50,[8],inconclusive: 100 µM
same,outcome,[6],inactive
CCN=c1cc2oc3cc(NCC)c(C)cc3c(-c3ccccc3C(=O)OCC)c-2cc1C,AC50,[1],inconclusive: 11.1 µM
same,AC50,[2],inconclusive: 19.4 µM
same,AC50,[3],inconclusive: 0.757 µM
same,outcome,[5],inactive
Cc1ccc2c(c1)OCC(=O)CO2,AC50,[1],inconclusive: 100 µM
same,AC50,[2],inconclusive: 100 µM
same,AC50,[3],inconclusive: 100 µM
same,AC50,[7],inconclusive: 100 µM
same,AC50,[5],inconclusive: 183 µM
same,AC50,[8],inconclusive: 100 µM
Oc1c(Cl)cc(Cl)c(Cl)c1Cl,outcome,[1],inactive
same,outcome,[2],inactive
same,AC50,[3],inconclusive: 124 µM
same,AC50,[5],inconclusive: 100 µM
same,AC50,[6],inconclusive: 0.0823 µM
FC(F)(F)C(F)(F)C(F)(F)CI,outcome,[1],inactive
same,AC50,[2],inconclusive: 150 µM
same,outcome,[3],inactive
same,AC50,[7],inconclusive: 150 µM
same,outcome,[8],inactive
same,outcome,[6],inactive
CCCCC/C=C\C/C=C\CCCCCCCC(=O)OC,AC50,[1],inconclusive: 100 µM
same,AC50,[2],inconclusive: 4.16 µM
same,AC50,[3],inconclusive: 100 µM
same,AC50,[5],inconclusive: 100 µM
same,AC50,[8],inconclusive: 100 µM

# Nothing new here: entries from further up.
structure (smiles),measurement,setting,value
O=C1c2ccc(O)c(O)c2C(=O)c2c(O)ccc(O)c21,outcome,[3],inactive
same,AC50,[4],inconclusive: 0.0412 µM
same,outcome,[5],inactive
same,AC50,[8],active: 13.8 µM
